Hit rate of the full screen: of about 580,000 compounds, about 6,100 (1.1%) were called active. Inconclusive results (about 15%) are left out. Calls come from the whole dose curve; as a rule, active = well fitted inhibition curve with a large enough effect; inconclusive = small, poorly fitted or top-dose-only effect, or another doubt; inactive = no such curve, though single readings can be large or run the other way. This is a selection; strong and weak results do not stand in their true shares. Entries without a call were filed so in the source. A structure can be active in one record and inactive in another.
What follows are molecules tested against Polyunsaturated fatty acid lipoxygenase ALOX12 (Homo sapiens) (UniProt P18054) (assay: Primary qHTS assay for inhibitors of human arachidonate 12S-lipoxygenase (ALOX12): Round 2). Settings: purified 12hLO, xylenol orange hydroperoxide absorbance; activity change, negative = inhibition: at 0.00344 µM (top of the series).
In short: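 Hydroperoxide product was detected by ferrous iron/xylenol orange as the 573 to 405 nm absorbance ratio. Arachidonic acid at 40 uM (final) was turned over for 30 min at room temperature by 150 nM human 12hLO, pH 7.0 Hepes buffer, after 15 min compound preincubation.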
% is set by controls: 0 for no effect and ±100 for the full control effect; potency is the fitted concentration of half-maximal effect.

The chains behind the UniProt entries cited, without tags or fusion partners.
UniProt P18054, whole entry, looked up: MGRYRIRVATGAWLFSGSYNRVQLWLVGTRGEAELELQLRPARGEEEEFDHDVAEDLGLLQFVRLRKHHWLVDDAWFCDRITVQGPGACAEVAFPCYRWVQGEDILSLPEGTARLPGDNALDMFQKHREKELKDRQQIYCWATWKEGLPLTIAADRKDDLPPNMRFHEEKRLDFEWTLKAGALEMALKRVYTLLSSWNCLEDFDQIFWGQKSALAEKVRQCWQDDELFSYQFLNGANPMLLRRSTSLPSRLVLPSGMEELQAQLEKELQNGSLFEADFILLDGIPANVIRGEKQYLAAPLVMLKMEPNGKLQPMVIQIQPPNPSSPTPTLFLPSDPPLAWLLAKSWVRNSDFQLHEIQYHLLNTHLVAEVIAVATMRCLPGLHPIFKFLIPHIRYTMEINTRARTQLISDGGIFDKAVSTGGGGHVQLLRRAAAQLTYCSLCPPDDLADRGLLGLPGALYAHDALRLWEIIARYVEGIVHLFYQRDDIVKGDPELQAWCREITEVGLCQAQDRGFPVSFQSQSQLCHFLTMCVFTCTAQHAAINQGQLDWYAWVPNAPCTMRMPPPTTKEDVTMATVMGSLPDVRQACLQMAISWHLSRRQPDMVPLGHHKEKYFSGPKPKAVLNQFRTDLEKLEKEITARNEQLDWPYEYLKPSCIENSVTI

| SMILES | Potency | activity change, negative = inhibition [%] |
| --- | --- | --- |
| Cc1ccc2c(=O)c(-c3nc(-c4ccc(Cl)cc4)no3)cn(CC(=O)NCc3ccco3)c2n1 | active: 20 µM | – |
| CCCc1ccc(C2C3=C(CC(C)(C)CC3=O)NC3=C2C(=O)c2ccccc23)cc1 (configuration not stated) | active: 25.1 µM | – |
| C/C(=N/NC(=O)c1ccncc1)C(=O)O | – | -27.8 |
| NC(=O)c1cnccn1 | – | 16 |
| O=C(CCNNC(=O)c1ccncc1)NCc1ccccc1 | – | 3.58 |
| Cc1nc2ccccn2c(=O)c1CCN1CCC(C(=O)c2ccc(F)cc2)CC1 | – | -8.95 |
| Cc1ccccc1N1CCN(CCc2nnc3n2CCCC3)CC1 | – | -7.85 |
| C/C=C/c1ccc(OC)cc1 | – | -24.3 |
| CCCCCCCCOc1ccc(C(=O)c2ccccc2)c(O)c1 | – | -20.7 |
| COc1nccnc1NS(=O)(=O)c1ccc(N)cc1 | – | 21.4 |
| CC(N)CCCC(C)(C)O (configuration not stated) | – | 14.6 |
| CCCOc1cccc(C2C(C(=O)c3ccco3)=C(O)C(=O)N2c2nnc(C)s2)c1 (configuration not stated) | active: 7.94 µM | – |
| C=CCc1cccc(OC)c1OCCOCCNCCO | active: 2.24 µM | – |
| O=C(O)c1ccccc1S | – | -9.43 |
| Oc1cccc(O)c1 | – | -17.5 |
| CC(=O)N(c1onc(C)c1C)S(=O)(=O)c1ccc(N)cc1 | – | -20.1 |
| Cc1cc(O)cc(C)c1Cl | – | 49 |
| CCC(=O)Oc1ccc2c(c1)CC[C@@H]1[C@@H]2CC[C@@]2(C)[C@H]1C[C@@H](OC(=O)CC)[C@@H]2OC(=O)CC | – | 3.83 |
| O=C1c2ccccc2C(=O)C1c1ccc(Br)cc1 | – | -14.6 |
| O=C(CN1C(=O)NC(c2ccc(Cl)cc2)C2=C1COC2=O)Nc1cc(F)cc(F)c1 (configuration not stated) | active: 11.2 µM | – |
| CN1CCCN(C(c2ccccc2)c2ccc(Cl)cc2)CC1 (configuration not stated) | – | -8.17 |
| C[C@@H]1C[C@H]2[C@@H]3CCC4=CC(=O)C=C[C@]4(C)[C@@]3(Cl)[C@@H](O)C[C@]2(C)[C@@]1(OC(=O)c1ccco1)C(=O)CCl | – | 0.908 |
| O=C(O)c1ccccc1O | – | 1.45 |
| CCc1cccc(CC)c1NC(=O)CN(CC(=O)O)CC(=O)O | – | -13.2 |
| CCOc1ccc(C(=O)OCCN(CC)CC)cc1 | – | 24.9 |
| C=C1c2cccc(O)c2C(O)=C2C(=O)[C@]3(O)C(O)=C(C(N)=O)C(=O)[C@@H](N(C)C)[C@@H]3[C@@H](O)[C@H]12 | – | -6.11 |
| Cc1ncc(CO)c(/C=N/NC(=S)Nc2ccc(Cl)c(Cl)c2)c1O | active: 44.7 µM | – |

Another view of 6 compounds above:
SMILES,Potency,"activity change, negative = inhibition [%]"
Cc1nc2ccccn2c(=O)c1CCN1CCC(C(=O)c2ccc(F)cc2)CC1,–,-8.95
Cc1ccccc1N1CCN(CCc2nnc3n2CCCC3)CC1,–,-7.85
COc1nccnc1NS(=O)(=O)c1ccc(N)cc1,–,21.4
C=CCc1cccc(OC)c1OCCOCCNCCO,active: 2.24 µM,–
CCOc1ccc(C(=O)OCCN(CC)CC)cc1,–,24.9
Cc1ncc(CO)c(/C=N/NC(=S)Nc2ccc(Cl)c(Cl)c2)c1O,active: 44.7 µM,–
